The target of the assay is full-length WzzBSF (Shigella flexneri) (UniProt P37792). Nature of the assay: cross-linking; whole S. flexneri cells, 0.5% formaldehyde, 25°C, 1 h, 10 mM potassium phosphate/10 mM Tris pH 6.8; samples heated at 60°C, SDS-PAGE, immunoblot with anti-WzzBSF.

No constants are given. Whether binding was seen depends on the method and setting. In cells and extracts the contact can be indirect. Some results given as binding are weak or reduced against the parent protein; the word gives no strength.

From article PMC4574919, “Structural and Biochemical Analysis of a Single Amino-Acid Mutant of WzzBSF That Alters Lipopolysaccharide O-Antigen Chain Length in Shigella flexneri” (PLoS ONE, 2015) come the findings set out here.

B1: full-length WzzBSF (natural protein)
chain: MRVENNNVSGQNHDPEQIDLIDLLVQLWRGKMTIIISVIVAIALAIGYLAVAKEKWTSTAIITQPDVGQIAGYNNAMNVIYGQAAPKVSDLQETLIGRFSSAFSALAETLDNQEEPEKLTIEPSVKNQQLPLTVSYVGQTAEGAQMKLAQYIQQVDDKVNQELEKDLKDNIALGRKNLQDSLRTQEVVAQEQKDLRIRQIQEALQYANQAQVTKPQVQQTEDVTQDTLFLLGSEALESMIKHEATRPLVFSPNYYQTRQNLLDIEKLKFDDLDIHAYRYVMKPTLPIRRDSPKKAITLILAVLLGGMVGAGIVLGRNALRNYNAK
notes: WzzBSF of Shigella flexneri, wzzSF open reading frame in pRMCD30; ~36 kDa; also called wild-type WzzBSF; source: S. flexneri RMA4053 (wzz::kan), from plasmid pRMCD30 (pQE30-based), IPTG-induced, in whole cells
Turning to B1, the binding entry is “binds”.
